Data on 6 molecules can be found in doi:10.1101/2023.01.08.523168 (bioRxiv, 2023).

The chains behind the UniProt entries cited, without tags or fusion partners. Residues count along the entry.
UniProt O95619, residues 15-158: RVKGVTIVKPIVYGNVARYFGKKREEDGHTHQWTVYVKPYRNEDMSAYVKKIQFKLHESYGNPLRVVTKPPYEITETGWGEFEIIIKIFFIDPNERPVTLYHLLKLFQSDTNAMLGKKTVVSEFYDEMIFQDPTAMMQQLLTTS

Results are given in words; binding and its absence hold for the method and conditions named. Some binding calls cover weakened binding; strength is not graded here. For some assays here: Tags and fused reporters may be left off the sequences shown.

The target in assay [1] is T1, 6x His-tagged ENL YEATS domain (human, UniProt Q03111 1-138).
T1 sequence (looked up): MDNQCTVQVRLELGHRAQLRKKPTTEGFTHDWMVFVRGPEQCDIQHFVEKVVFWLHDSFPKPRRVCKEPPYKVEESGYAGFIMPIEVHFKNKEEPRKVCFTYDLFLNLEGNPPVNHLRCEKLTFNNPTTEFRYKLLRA
As to the kind of experiment: AlphaScreen or HTRF.

Assay [2] has as its target T1, 6x His-tagged ENL YEATS domain. As to the kind of experiment: BLI. Background: In BLI a coated tip is dipped into the sample, and binding shifts an interference pattern.
For assay [3], the target named is GAS41 (human) (UniProt O95619). As to the kind of experiment: BLI.
Assay [4] has as its target T2, YEATS2 (human) (UniProt Q9ULM3).
T2 sequence: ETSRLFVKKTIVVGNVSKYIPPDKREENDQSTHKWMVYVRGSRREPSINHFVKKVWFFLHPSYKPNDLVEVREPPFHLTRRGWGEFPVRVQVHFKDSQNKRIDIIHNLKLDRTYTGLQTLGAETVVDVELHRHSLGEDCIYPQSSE
As to the kind of experiment: BLI.

B1: ENL-S1 with the 1st residue (tyrosine) replaced by alanine (peptide)
peptide: ADVYCYK
modifications: N^ε-butyryl-L-lysine (BuK) at position 7
In the case of B1, the binding result in assay [1] is “binds”.

B2: ENL-S1 with the 4th residue (tyrosine) replaced by alanine (peptide)
peptide: YDVACYK
modifications: N^ε-butyryl-L-lysine (BuK) at position 7
For the molecule B2, the binding entry in assay [1] is given as “binds”.

B3: tENL-S1f (peptide)
peptide: VYCYK
modifications: N-terminal acetyl; N^ε-2-furancarbonyl-L-lysine (FurK) at position 5
For the molecule B3, the binding result in assay [2] is given as “binds”; in assay [3], “no binding (tested: 10 μM)”; in assay [4] it was “no binding (tested: 10 μM)”.

B4: ENL-S1 with BuK replaced by alanine (peptide)
peptide: YDVYCYA
For the molecule B4, the binding result in assay [1] was “no binding”.

B5: ENL-S1 with the 6th residue (tyrosine) replaced by alanine (peptide)
peptide: YDVYCAK
modifications: N^ε-butyryl-L-lysine (BuK) at position 7
In the case of B5, the binding entry in assay [1] was “no binding”.

B6: ENL-S1 with the 2nd residue (aspartic acid) replaced by alanine (peptide)
peptide: YAVYCYK
modifications: N^ε-butyryl-L-lysine (BuK) at position 7
Regarding B6, the binding result in assay [1] is reported as “binds”.
